± gives the standard deviation of the averaged measurements. Values are relative to the signal before dosing, not to a vehicle control; the signal also falls without drug.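 Labels refer to human fibroblasts, largely primary: uterine (C12385, HUF), lung (H6013), bone (Hs27A), adrenal (HADF), skin (WS1), plus mammary HMF and breast cancer-associated Hs343T. Cancer lines are basal-like or mesenchymal-like triple-negative breast cancer. The paper counts as hits responses shifting over 3x the replicate standard deviation. The tissue of the other fibroblasts is not given here.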
Test system: MDAMB231
Assay: relative JC-1 red fluorescence (viability) vs pre-drug, coculture with fibroblast (fraction); higher = more viable cancer cells
Experimental: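 JC-1 labelled TNBC cells cocultured 1:1 (1,500 cells each) with CellTrace Violet stained primary or stromal fibroblasts in 384-well plates in FluoroBrite medium, treated with one of 42 anticancer drugs at 0.1, 1, 10 or 100 uM. JC-1 red fluorescence (mitochondrial integrity in cancer cells only) was read by plate reader every 8 h for 72 h. Values are normalised to each well's pre-drug value. The stock of one drug was tenfold lower, so its dose labels may be too high.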

CCc1c2c(nc3ccc(OC(=O)N4CCC(N5CCCCC5)CC4)cc13)-c1cc3c(c(=O)n1C2)COC(=O)[C@]3(O)CC [Irinotecan]
relative JC-1 red fluorescence
Details | 8 h | 16 h | 24 h | 32 h | 40 h | 48 h | 56 h | 64 h | 72 h
0.1 µM, coculture fibroblast: C12385 | 0.744 ± 0.0081 | 0.7026 ± 0.0024 | 0.62 ± 0.012 | 0.588 ± 0.021 | 0.526 ± 0.037 | 0.492 ± 0.037 | 0.444 ± 0.034 | 0.437 ± 0.041 | 0.411 ± 0.04
0.1 µM, coculture fibroblast: H6013 | 0.8715 ± 0.002 | 0.80307 ± 0.00015 | 0.778 ± 0.0019 | 0.7595 ± 0.0044 | 0.7239 ± 0.0062 | 0.7026 ± 0.0069 | 0.692 ± 0.013 | 0.6696 ± 0.0036 | 0.632 ± 0.0092
0.1 µM, coculture fibroblast: H6019 | 0.761 ± 0.028 | 0.727 ± 0.038 | 0.609 ± 0.02 | 0.603 ± 0.0078 | 0.541 ± 0.0086 | 0.509 ± 0.0084 | 0.474 ± 0.021 | 0.443 ± 0.013 | 0.397 ± 0.0069
0.1 µM, coculture fibroblast: H6076 | 0.892 ± 0.028 | 0.809 ± 0.013 | 0.739 ± 0.0077 | 0.7073 ± 0.0039 | 0.656 ± 0.009 | 0.613 ± 0.0049 | 0.573 ± 0.014 | 0.555 ± 0.017 | 0.541 ± 0.02
0.1 µM, coculture fibroblast: H6231 | 0.87 ± 0.037 | 0.778 ± 0.033 | 0.717 ± 0.045 | 0.688 ± 0.035 | 0.634 ± 0.027 | 0.6 ± 0.024 | 0.559 ± 0.019 | 0.541 ± 0.017 | 0.519 ± 0.0094
0.1 µM, coculture fibroblast: HADF | 0.858 ± 0.051 | 0.804 ± 0.028 | 0.7696 ± 0.0019 | 0.7369 ± 0.0036 | 0.699 ± 0.015 | 0.658 ± 0.034 | 0.644 ± 0.035 | 0.63 ± 0.029 | 0.586 ± 0.025
0.1 µM, coculture fibroblast: HCFa | 0.892 ± 0.042 | 0.846 ± 0.039 | 0.803 ± 0.033 | 0.765 ± 0.03 | 0.711 ± 0.027 | 0.644 ± 0.028 | 0.6167 ± 0.0038 | 0.585 ± 0.01 | 0.54 ± 0.013
0.1 µM, coculture fibroblast: HCPF | 0.871 ± 0.0096 | 0.7627 ± 0.0028 | 0.6901 ± 0.0041 | 0.6625 ± 0.0036 | 0.61 ± 0.0054 | 0.567 ± 0.013 | 0.53 ± 0.016 | 0.498 ± 0.021 | 0.476 ± 0.036
0.1 µM, coculture fibroblast: HHSteC | 0.87991 ± 0.00053 | 0.828 ± 0.02 | 0.783 ± 0.023 | 0.741 ± 0.028 | 0.697 ± 0.037 | 0.668 ± 0.046 | 0.624 ± 0.045 | 0.596 ± 0.047 | 0.554 ± 0.052
0.1 µM, coculture fibroblast: HMF | 0.8619 ± 0.0084 | 0.771 ± 0.033 | 0.724 ± 0.017 | 0.681 ± 0.017 | 0.6365 ± 0.0043 | 0.597 ± 0.0084 | 0.556 ± 0.01 | 0.545 ± 0.019 | 0.526 ± 0.018
0.1 µM, coculture fibroblast: HPFa | 0.929 ± 0.00051 | 0.873 ± 0.012 | 0.8124 ± 0.0057 | 0.748 ± 0.009 | 0.719 ± 0.025 | 0.676 ± 0.038 | 0.62 ± 0.037 | 0.578 ± 0.052 | 0.511 ± 0.041
0.1 µM, coculture fibroblast: HUF | 0.849 ± 0.027 | 0.731 ± 0.024 | 0.702 ± 0.011 | 0.593 ± 0.022 | 0.522 ± 0.025 | 0.485 ± 0.029 | 0.43 ± 0.022 | 0.406 ± 0.015 | 0.381 ± 0.012
0.1 µM, coculture fibroblast: Hs5 | 0.833 ± 0.075 | 0.785 ± 0.073 | 0.771 ± 0.062 | 0.734 ± 0.051 | 0.706 ± 0.036 | 0.664 ± 0.018 | 0.637 ± 0.0099 | 0.6124 ± 0.005 | 0.5879 ± 0.0012
0.1 µM, coculture fibroblast: Hs27A | 0.8751 ± 0.0085 | 0.8237 ± 0.0018 | 0.777 ± 0.0023 | 0.74697 ± 0.00023 | 0.694 ± 0.012 | 0.616 ± 0.014 | 0.622 ± 0.0088 | 0.5966 ± 0.0044 | 0.547 ± 0.014
0.1 µM, coculture fibroblast: Hs343T | 0.8707 ± 0.0019 | 0.73593 ± 0.00041 | 0.6696 ± 0.0025 | 0.63606 ± 0.00056 | 0.5784 ± 0.0031 | 0.538 ± 0.013 | 0.48 ± 0.026 | 0.459 ± 0.029 | 0.443 ± 0.015
0.1 µM, coculture fibroblast: WS1 | 0.718 ± 0.0085 | 0.673 ± 0.032 | 0.603 ± 0.038 | 0.559 ± 0.023 | 0.504 ± 0.017 | 0.471 ± 0.026 | 0.423 ± 0.017 | 0.405 ± 0.023 | 0.378 ± 0.028
1 µM, coculture fibroblast: C12385 | 0.745 ± 0.019 | 0.696 ± 0.045 | 0.665 ± 0.046 | 0.611 ± 0.042 | 0.5 ± 0.088 | 0.479 ± 0.1 | 0.462 ± 0.09 | 0.476 ± 0.084 | 0.468 ± 0.092
1 µM, coculture fibroblast: H6013 | 0.866 ± 0.017 | 0.8646 ± 0.0079 | 0.835 ± 0.023 | 0.824 ± 0.039 | 0.794 ± 0.069 | 0.795 ± 0.088 | 0.778 ± 0.093 | 0.762 ± 0.099 | 0.719 ± 0.079
1 µM, coculture fibroblast: H6019 | 0.81 ± 0.067 | 0.76 ± 0.11 | 0.698 ± 0.05 | 0.667 ± 0.092 | 0.62 ± 0.1 | 0.597 ± 0.11 | 0.555 ± 0.1 | 0.538 ± 0.11 | 0.499 ± 0.12
1 µM, coculture fibroblast: H6076 | 0.843 ± 0.012 | 0.766 ± 0.035 | 0.716 ± 0.051 | 0.685 ± 0.045 | 0.636 ± 0.059 | 0.587 ± 0.056 | 0.566 ± 0.05 | 0.55 ± 0.053 | 0.532 ± 0.047
1 µM, coculture fibroblast: H6231 | 0.836 ± 0.051 | 0.85 ± 0.12 | 0.807 ± 0.14 | 0.76 ± 0.12 | 0.689 ± 0.098 | 0.644 ± 0.083 | 0.599 ± 0.067 | 0.58 ± 0.064 | 0.56 ± 0.075
1 µM, coculture fibroblast: HADF | 0.845 ± 0.018 | 0.8383 ± 0.0014 | 0.814 ± 0.028 | 0.766 ± 0.031 | 0.744 ± 0.052 | 0.71 ± 0.068 | 0.689 ± 0.062 | 0.684 ± 0.071 | 0.639 ± 0.069
1 µM, coculture fibroblast: HCFa | 0.8792 ± 0.0082 | 0.859 ± 0.017 | 0.826 ± 0.012 | 0.7821 ± 0.0045 | 0.735 ± 0.0094 | 0.6759 ± 0.0027 | 0.642 ± 0.0076 | 0.603 ± 0.011 | 0.554 ± 0.018
1 µM, coculture fibroblast: HCPF | 0.86 ± 0.016 | 0.73 ± 0.017 | 0.686 ± 0.022 | 0.657 ± 0.035 | 0.595 ± 0.048 | 0.555 ± 0.045 | 0.524 ± 0.06 | 0.497 ± 0.062 | 0.48 ± 0.062
1 µM, coculture fibroblast: HHSteC | 0.918 ± 0.012 | 0.8836 ± 0.0038 | 0.842 ± 0.017 | 0.789 ± 0.018 | 0.763 ± 0.02 | 0.737 ± 0.018 | 0.689 ± 0.01 | 0.665 ± 0.015 | 0.6184 ± 0.004
1 µM, coculture fibroblast: HMF | 0.898 ± 0.019 | 0.8337 ± 0.0057 | 0.78 ± 0.022 | 0.738 ± 0.03 | 0.688 ± 0.029 | 0.65 ± 0.05 | 0.632 ± 0.066 | 0.616 ± 0.08 | 0.6 ± 0.091
1 µM, coculture fibroblast: HPFa | 0.913 ± 0.02 | 0.868 ± 0.023 | 0.8263 ± 0.0072 | 0.761 ± 0.014 | 0.731 ± 0.026 | 0.694 ± 0.028 | 0.621 ± 0.037 | 0.586 ± 0.04 | 0.532 ± 0.04
1 µM, coculture fibroblast: HUF | 0.8436 ± 0.0062 | 0.7415 ± 0.004 | 0.749 ± 0.012 | 0.6263 ± 0.0061 | 0.558 ± 0.016 | 0.539 ± 0.019 | 0.48 ± 0.017 | 0.472 ± 0.014 | 0.449 ± 0.013
1 µM, coculture fibroblast: Hs5 | 0.892 ± 0.036 | 0.81 ± 0.042 | 0.751 ± 0.045 | 0.695 ± 0.04 | 0.643 ± 0.051 | 0.593 ± 0.053 | 0.557 ± 0.054 | 0.53 ± 0.048 | 0.496 ± 0.047
1 µM, coculture fibroblast: Hs27A | 0.8805 ± 0.0043 | 0.8414 ± 0.0074 | 0.8111 ± 0.0067 | 0.79 ± 0.01 | 0.7304 ± 0.0054 | 0.674 ± 0.011 | 0.6639 ± 0.0027 | 0.644 ± 0.015 | 0.595 ± 0.0084
1 µM, coculture fibroblast: Hs343T | 0.8691 ± 0.0049 | 0.777 ± 0.015 | 0.729 ± 0.019 | 0.682 ± 0.02 | 0.624 ± 0.034 | 0.572 ± 0.032 | 0.524 ± 0.041 | 0.498 ± 0.035 | 0.463 ± 0.041
1 µM, coculture fibroblast: WS1 | 0.725 ± 0.031 | 0.686 ± 0.017 | 0.619 ± 0.019 | 0.554 ± 0.022 | 0.499 ± 0.02 | 0.465 ± 0.018 | 0.421 ± 0.012 | 0.418 ± 0.02 | 0.394 ± 0.014

— the supplement of paper PMC6078165
